In this assay the target is FLAG-tagged ANKRD1 (ankyrin repeat domain 1), wild type (human) (UniProt Q15327). The experiment in a line: affinity purification with mass spectrometry; whole-cell lysates immunoprecipitated with FLAG primary antibodies, products analysed by mass spectrometry (IP-MS); cutoff = 4.

Protein sequences, listed by entry. Tags and fused reporters are not part of them.
UniProt Q15327: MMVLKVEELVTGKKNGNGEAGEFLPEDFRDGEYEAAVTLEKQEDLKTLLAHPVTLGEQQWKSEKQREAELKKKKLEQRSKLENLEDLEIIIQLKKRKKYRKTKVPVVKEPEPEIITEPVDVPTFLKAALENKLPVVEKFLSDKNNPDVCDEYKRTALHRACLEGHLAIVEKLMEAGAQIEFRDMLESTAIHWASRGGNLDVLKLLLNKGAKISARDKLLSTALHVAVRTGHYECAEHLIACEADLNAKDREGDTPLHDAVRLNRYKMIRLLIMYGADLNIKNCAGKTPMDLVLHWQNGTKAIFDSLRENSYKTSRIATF
UniProt O95573: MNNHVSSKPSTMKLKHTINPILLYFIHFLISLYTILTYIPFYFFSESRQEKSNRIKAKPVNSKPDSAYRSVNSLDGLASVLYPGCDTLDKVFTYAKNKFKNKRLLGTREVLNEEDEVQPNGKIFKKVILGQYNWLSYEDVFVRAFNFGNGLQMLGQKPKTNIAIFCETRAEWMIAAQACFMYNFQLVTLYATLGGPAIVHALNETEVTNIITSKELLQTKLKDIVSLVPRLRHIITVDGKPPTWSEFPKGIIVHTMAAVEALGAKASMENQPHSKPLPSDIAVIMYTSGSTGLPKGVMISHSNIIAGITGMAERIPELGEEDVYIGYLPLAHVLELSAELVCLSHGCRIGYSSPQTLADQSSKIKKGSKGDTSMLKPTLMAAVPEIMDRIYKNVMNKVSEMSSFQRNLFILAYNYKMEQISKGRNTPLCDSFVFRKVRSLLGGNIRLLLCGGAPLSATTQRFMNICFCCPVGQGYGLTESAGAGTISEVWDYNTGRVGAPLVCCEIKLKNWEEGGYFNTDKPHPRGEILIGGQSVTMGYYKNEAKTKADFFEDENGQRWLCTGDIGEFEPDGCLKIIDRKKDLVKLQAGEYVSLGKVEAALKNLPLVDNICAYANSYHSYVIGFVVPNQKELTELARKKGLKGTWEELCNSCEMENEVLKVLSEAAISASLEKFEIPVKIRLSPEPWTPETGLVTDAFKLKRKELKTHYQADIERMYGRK
UniProt Q5T4S7: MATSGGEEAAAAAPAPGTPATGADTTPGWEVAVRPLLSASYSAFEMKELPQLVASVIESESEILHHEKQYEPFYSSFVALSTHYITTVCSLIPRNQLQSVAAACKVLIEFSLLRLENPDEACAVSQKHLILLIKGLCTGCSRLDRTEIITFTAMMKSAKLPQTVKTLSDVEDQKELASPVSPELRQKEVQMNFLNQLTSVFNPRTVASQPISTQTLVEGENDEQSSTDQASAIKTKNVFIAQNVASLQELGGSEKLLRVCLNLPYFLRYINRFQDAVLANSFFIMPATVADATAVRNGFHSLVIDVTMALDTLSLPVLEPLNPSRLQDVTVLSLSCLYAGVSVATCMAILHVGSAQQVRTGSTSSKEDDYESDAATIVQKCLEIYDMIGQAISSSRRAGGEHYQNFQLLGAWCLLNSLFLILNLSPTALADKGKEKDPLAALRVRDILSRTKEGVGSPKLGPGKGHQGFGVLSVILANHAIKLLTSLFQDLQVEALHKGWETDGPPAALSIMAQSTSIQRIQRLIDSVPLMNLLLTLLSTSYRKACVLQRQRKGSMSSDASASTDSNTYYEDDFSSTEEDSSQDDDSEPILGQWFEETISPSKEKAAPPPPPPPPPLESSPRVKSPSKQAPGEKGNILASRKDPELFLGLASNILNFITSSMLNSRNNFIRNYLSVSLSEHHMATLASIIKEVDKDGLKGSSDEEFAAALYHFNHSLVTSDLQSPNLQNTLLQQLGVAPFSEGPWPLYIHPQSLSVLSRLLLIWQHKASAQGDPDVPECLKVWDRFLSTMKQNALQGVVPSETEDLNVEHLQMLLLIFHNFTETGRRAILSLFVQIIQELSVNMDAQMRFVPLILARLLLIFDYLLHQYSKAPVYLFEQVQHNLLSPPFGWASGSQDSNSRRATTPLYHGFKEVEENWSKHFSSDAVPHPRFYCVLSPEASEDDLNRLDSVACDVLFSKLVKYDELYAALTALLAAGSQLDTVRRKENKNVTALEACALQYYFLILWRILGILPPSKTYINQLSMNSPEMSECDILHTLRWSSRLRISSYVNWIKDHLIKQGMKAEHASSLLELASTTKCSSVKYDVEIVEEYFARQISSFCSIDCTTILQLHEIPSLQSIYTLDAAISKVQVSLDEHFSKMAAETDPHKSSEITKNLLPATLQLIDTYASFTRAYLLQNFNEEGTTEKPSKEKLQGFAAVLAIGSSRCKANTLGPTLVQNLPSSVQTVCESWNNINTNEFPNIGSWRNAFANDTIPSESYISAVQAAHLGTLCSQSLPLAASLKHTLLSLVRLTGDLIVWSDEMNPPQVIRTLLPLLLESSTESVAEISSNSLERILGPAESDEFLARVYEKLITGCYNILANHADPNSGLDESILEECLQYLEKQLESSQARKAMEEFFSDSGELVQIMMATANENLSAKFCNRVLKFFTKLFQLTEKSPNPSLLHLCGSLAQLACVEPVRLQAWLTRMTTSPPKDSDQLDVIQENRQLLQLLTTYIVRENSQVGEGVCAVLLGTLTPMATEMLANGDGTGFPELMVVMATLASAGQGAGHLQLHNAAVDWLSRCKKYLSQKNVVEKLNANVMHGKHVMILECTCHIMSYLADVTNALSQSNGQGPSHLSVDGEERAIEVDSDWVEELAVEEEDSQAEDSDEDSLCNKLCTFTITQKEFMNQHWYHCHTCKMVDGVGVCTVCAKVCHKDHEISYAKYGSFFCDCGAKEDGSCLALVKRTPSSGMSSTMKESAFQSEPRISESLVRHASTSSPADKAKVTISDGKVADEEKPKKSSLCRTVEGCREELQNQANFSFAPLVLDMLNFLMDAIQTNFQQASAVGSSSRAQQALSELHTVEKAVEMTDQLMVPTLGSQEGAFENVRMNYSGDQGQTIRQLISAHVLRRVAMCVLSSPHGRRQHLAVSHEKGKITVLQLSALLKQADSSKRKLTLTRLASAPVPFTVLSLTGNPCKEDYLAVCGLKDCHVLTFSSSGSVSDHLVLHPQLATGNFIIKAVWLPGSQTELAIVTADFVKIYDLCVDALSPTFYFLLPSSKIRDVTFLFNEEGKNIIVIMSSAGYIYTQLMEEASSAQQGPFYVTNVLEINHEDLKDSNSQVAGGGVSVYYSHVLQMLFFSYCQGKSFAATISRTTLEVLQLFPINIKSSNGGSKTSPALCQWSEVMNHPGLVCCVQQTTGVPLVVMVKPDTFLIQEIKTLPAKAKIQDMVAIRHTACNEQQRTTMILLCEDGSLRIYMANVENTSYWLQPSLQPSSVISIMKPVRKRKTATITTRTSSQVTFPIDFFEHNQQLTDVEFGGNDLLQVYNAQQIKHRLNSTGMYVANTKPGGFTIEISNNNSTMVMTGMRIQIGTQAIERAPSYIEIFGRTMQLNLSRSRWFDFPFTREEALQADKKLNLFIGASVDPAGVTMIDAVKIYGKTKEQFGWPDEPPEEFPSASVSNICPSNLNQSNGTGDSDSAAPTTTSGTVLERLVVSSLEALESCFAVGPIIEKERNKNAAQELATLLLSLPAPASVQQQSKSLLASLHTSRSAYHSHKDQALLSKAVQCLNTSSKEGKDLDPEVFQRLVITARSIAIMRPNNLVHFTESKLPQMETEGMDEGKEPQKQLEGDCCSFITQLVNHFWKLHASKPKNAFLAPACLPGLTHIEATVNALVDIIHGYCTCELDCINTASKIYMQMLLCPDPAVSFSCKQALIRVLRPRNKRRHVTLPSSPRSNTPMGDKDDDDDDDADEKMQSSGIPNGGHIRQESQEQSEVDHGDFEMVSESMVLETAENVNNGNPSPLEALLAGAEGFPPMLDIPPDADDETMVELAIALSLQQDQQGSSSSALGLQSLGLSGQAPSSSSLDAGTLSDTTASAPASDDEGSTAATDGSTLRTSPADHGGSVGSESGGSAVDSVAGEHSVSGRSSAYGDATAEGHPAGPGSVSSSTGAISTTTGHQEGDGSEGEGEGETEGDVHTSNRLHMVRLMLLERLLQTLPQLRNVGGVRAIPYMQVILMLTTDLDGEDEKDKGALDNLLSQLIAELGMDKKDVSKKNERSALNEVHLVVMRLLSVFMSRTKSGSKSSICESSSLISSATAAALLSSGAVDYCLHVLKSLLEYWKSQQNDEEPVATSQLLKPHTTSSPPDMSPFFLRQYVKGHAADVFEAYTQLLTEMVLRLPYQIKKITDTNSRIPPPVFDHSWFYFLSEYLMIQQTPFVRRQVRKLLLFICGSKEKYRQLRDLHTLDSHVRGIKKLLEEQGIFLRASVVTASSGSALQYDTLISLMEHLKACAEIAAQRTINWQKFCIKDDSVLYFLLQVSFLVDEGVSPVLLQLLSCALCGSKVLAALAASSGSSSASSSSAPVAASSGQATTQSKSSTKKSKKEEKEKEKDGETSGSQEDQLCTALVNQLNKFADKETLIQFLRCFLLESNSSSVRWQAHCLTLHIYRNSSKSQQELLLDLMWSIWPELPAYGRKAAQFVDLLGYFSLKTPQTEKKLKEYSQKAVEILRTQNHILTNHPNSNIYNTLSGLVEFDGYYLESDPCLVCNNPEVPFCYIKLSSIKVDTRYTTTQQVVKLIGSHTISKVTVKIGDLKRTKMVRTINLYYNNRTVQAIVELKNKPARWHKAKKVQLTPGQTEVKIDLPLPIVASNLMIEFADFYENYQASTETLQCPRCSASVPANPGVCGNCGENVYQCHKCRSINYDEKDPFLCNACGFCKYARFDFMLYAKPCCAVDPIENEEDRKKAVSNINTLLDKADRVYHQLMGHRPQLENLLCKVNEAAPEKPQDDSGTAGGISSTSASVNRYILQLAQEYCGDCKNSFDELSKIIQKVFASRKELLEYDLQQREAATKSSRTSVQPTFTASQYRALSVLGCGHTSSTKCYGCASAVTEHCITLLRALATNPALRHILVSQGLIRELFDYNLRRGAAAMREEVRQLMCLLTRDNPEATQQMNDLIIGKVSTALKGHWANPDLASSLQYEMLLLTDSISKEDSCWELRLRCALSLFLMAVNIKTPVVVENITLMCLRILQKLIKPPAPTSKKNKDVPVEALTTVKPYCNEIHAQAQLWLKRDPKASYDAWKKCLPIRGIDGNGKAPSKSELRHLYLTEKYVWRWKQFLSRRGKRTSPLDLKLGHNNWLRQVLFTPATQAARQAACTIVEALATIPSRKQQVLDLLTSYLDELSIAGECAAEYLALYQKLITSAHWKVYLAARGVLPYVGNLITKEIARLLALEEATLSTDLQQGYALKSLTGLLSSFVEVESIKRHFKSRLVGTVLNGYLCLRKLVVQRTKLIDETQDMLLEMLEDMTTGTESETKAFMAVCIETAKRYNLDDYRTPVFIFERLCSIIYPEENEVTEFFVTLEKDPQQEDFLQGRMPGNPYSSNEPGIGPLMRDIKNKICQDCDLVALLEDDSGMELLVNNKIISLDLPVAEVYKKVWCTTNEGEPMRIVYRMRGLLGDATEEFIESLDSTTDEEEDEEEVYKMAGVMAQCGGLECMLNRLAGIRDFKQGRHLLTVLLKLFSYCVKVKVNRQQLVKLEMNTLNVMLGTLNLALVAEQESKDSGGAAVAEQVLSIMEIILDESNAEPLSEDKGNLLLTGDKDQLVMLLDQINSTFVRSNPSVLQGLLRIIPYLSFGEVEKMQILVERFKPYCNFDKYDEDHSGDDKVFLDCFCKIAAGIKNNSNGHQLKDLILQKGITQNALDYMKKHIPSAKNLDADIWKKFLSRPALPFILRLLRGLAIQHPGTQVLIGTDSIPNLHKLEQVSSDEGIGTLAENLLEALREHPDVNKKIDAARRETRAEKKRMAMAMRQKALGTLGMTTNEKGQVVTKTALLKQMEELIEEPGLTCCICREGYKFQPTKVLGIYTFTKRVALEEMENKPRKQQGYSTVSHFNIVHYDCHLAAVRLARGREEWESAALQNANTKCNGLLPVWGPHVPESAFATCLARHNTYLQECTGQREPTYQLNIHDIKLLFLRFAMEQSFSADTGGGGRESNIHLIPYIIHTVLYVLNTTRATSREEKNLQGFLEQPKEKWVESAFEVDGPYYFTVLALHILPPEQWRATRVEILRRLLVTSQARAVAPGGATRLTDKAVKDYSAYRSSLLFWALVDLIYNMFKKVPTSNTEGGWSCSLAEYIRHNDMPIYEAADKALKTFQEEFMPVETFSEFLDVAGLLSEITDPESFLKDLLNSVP

No constants are given. Whether binding was seen depends on the method and setting. In cells and extracts the contact can be indirect. These calls come from enrichment with a bait or labelling near it, and not all partners need be listed.

The source of these data is publication PMC11406046.

In the case of “ACSL3 (acyl-coenzyme A synthetase long-chain family member 3), endogenous in HK-2 cells (from UniProt O95573 1-720)”, the binding entry was “binds”. The entry for “TRIM25 (tripartite motif containing 25), endogenous in HK-2 cells (from UniProt Q14258 1-630) (enzyme)” is “binds”; for “UBR4 (from UniProt Q5T4S7 1-5183) (enzyme)” it is “binds”.
